Data as given in PubChem BioAssay AID1224826 (NIAID, 2016)

Assay: 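Regulators of Tlr4 signalling leading to Tnf-alpha expression in macrophages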 (primary screen)
System: RAW264.7 G9 macrophages from mouse bearing reporters for p65 (GFP) and the Tnf promoter (mCherry)
Reagents: siRNA pool against mouse genes, 100 nM
Duration: 16 h of LPS stimulation, after 2 days of siRNA transfection
Challenge: bacterial lipopolysaccharide (Salmonella minnesota R595), 10 ng/ml
Read-out: 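Imaged Tnf reporter mCherry in nuclei, minus background, normalised per plate to the median and expressed as robust z-scores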
Direction: Tnf reporter robust z-score: higher = stronger Tnf promoter reporter signal after LPS
Hit rule: 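a well counts as active at a score of -1.3 or below (Tlr4 knock-down control median) or above 3 (raised signal); controls and wells holding fewer than 50 cells are excluded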
Calls: active = Tnf reporter clearly lowered or raised; inactive = no clear change in Tnf reporter
The whole screen tested about 17,000 reagents; below is a part drawn at random. About 1,110 of all reagents (6.6%) were called active. 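Active means lowered or raised reporter signal; replicate intensities are raw and not normalised per plate.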 Further read-outs or replicates are left out here.

Csrp2
- Tnf reporter robust z-score: 0.22
- fewer than 50 cells in well: enough cells in well
- Call: inactive

Msr1
- Tnf reporter robust z-score: 0.28
- fewer than 50 cells in well: enough cells in well
- Call: inactive

Ssr1
- Tnf reporter robust z-score: -0.36
- fewer than 50 cells in well: enough cells in well
- Call: inactive

Tab3
- fewer than 50 cells in well: fewer than 50 cells per well; well left out of calls
- Call: inactive

Hoxa6
- Tnf reporter robust z-score: 1.02
- fewer than 50 cells in well: enough cells in well
- Call: inactive

Sh3rf2
- Tnf reporter robust z-score: 0.74
- fewer than 50 cells in well: enough cells in well
- Call: inactive

Foxa1
- Tnf reporter robust z-score: 0.43
- fewer than 50 cells in well: enough cells in well
- Call: inactive

Fkbpl
- Tnf reporter robust z-score: -0.06
- fewer than 50 cells in well: enough cells in well
- Call: inactive

Radx
- Tnf reporter robust z-score: 1.87
- fewer than 50 cells in well: enough cells in well
- Call: inactive

Eif2b4
- Tnf reporter robust z-score: -1.23
- fewer than 50 cells in well: enough cells in well
- Call: inactive

Nlrp2
- Tnf reporter robust z-score: -0.26
- fewer than 50 cells in well: enough cells in well
- Call: inactive

Hap1
- Tnf reporter robust z-score: 0.04
- fewer than 50 cells in well: enough cells in well
- Call: inactive

Oca2
- Tnf reporter robust z-score: -0.09
- fewer than 50 cells in well: enough cells in well
- Call: inactive

Nr2c2
- Tnf reporter robust z-score: -0.7
- fewer than 50 cells in well: enough cells in well
- Call: inactive

Or5g27
- Tnf reporter robust z-score: -0.11
- fewer than 50 cells in well: enough cells in well
- Call: inactive

8030498B09Rik
- fewer than 50 cells in well: fewer than 50 cells per well; well left out of calls
- Call: inactive

Gimap5
- Tnf reporter robust z-score: 0.7
- fewer than 50 cells in well: enough cells in well
- Call: inactive

Sec23a
- Tnf reporter robust z-score: 2.55
- fewer than 50 cells in well: enough cells in well
- Call: inactive

Vmn1r76
- Tnf reporter robust z-score: -0.13
- fewer than 50 cells in well: enough cells in well
- Call: inactive

Cdkn2d
- Tnf reporter robust z-score: 2.47
- fewer than 50 cells in well: enough cells in well
- Call: inactive

Nrdc
- Tnf reporter robust z-score: 0.76
- fewer than 50 cells in well: enough cells in well
- Call: inactive

Targets above whose target name begins with S or s:
Ssr1
- Tnf reporter robust z-score: -0.36
- fewer than 50 cells in well: enough cells in well
- Call: inactive

Sh3rf2
- Tnf reporter robust z-score: 0.74
- fewer than 50 cells in well: enough cells in well
- Call: inactive

Sec23a
- Tnf reporter robust z-score: 2.55
- fewer than 50 cells in well: enough cells in well
- Call: inactive
